Measurements published in paper PMC11707020.
These are yes or no findings as the source states them, for the method shown. In cells and extracts the contact can be indirect. Here binding means that the protein was enriched with, or labelled near, the bait; the list need not be complete.

The chains behind the UniProt entries cited, without tags or fusion partners. Residues count along the entry.
UniProt Q9UHP3: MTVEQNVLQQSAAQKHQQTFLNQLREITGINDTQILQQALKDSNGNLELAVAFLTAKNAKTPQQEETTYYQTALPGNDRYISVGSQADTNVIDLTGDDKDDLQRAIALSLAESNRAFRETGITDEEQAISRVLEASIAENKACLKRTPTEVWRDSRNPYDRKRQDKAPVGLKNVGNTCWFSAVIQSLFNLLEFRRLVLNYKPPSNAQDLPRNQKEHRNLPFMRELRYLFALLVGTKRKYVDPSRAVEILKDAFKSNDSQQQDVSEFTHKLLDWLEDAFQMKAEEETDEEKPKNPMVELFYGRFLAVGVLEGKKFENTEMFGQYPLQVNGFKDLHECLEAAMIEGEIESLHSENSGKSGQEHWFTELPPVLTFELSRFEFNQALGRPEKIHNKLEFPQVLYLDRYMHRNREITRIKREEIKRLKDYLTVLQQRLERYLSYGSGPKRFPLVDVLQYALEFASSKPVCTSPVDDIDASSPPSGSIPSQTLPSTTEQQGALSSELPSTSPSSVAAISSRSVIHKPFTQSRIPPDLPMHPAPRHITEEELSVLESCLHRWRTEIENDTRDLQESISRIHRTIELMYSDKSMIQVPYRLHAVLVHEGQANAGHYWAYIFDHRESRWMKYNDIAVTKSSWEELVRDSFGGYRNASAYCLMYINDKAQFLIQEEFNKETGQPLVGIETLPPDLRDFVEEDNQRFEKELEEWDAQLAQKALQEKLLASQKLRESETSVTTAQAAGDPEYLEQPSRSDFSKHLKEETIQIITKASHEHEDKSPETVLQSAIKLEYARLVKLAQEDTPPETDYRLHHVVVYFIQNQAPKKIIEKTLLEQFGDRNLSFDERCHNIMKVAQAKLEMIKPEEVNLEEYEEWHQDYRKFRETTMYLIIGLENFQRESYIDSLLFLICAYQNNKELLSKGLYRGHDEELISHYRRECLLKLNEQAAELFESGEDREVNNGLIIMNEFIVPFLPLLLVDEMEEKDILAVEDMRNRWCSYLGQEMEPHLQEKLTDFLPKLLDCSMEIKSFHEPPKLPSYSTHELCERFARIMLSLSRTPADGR
UniProt P11021, residues 19-654: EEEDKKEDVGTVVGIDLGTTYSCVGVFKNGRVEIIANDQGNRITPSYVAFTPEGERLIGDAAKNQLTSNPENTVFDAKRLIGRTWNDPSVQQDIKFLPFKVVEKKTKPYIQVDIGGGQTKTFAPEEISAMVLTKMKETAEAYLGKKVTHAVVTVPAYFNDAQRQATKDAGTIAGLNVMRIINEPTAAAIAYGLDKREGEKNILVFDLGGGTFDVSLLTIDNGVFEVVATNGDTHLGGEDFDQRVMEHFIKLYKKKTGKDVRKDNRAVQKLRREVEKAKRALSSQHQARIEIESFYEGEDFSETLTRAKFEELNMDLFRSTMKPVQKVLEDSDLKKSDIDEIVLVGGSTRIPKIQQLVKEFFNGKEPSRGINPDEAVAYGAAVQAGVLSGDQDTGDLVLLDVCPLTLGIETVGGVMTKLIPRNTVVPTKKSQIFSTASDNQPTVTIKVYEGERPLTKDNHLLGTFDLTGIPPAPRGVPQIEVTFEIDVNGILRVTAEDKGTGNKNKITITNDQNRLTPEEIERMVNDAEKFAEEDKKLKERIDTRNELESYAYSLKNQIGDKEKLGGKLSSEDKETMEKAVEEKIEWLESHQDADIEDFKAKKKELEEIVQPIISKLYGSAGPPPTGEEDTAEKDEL
UniProt P40763: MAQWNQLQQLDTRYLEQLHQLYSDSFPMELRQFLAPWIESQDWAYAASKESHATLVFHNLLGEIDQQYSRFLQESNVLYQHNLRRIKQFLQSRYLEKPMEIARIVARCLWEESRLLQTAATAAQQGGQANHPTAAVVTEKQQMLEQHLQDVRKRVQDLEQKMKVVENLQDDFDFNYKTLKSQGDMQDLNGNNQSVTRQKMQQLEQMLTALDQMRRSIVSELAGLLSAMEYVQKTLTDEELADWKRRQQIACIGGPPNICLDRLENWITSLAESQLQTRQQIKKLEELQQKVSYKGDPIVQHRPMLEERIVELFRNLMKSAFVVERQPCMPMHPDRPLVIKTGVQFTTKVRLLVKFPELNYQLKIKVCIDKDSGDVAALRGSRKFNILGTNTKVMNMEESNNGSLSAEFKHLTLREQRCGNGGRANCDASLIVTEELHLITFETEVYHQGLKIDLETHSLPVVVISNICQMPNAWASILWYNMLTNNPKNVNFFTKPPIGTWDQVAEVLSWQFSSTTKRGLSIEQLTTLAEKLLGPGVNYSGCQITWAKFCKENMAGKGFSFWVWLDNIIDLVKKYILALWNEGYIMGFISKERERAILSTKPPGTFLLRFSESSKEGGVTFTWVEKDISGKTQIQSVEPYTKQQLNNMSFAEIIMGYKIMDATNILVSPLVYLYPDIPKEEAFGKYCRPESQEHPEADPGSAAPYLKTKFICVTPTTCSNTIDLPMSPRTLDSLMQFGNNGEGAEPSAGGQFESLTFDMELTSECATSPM

Target: USP25 overexpressed in 293T cells (bait of the IP-MS) (UniProt Q9UHP3)
Test: affinity purification with mass spectrometry; USP25 immunoprecipitated from USP25-overexpressing 293T cells (IP lysis buffer, protein A/G agarose beads), LC-MS/MS; candidates with >2 unique peptides

## HSP90A (from UniProt P07900 1-732)
  binding: binds

## BIP (from UniProt P11021 19-654)
  binding: binds

## endogenous STAT3 (from UniProt P40763 1-770)
  binding: binds
